Test results reported in patent US20210087288A1.
Results are given in words; binding and its absence hold for the method and conditions named. Some binding calls cover weakened binding; strength is not graded here.

Legend:
[1] = target: Human TfR extracellular domain (ecd) containing an N-terminal His tag (human) (UniProt P02786); experiment: ELISA on purified huTfR
[2] = target: Cyno TfR extracellular domain (analogous ecd construct) (cynomolgus monkey); experiment: ELISA on purified cyno TfR
[3] = target: Full length human TfR on cells (transfected 293 cells; HEL cells) (human) (UniProt P02786); experiment: FACS, 293 cells transfected with full length TfR, 1 uM holo-Tf present
[4] = target: Full length cyno TfR on transfected 293 cells (cynomolgus monkey); experiment: as above
[5] = target: Full length human TfR on cells (transfected 293 cells; HEL cells) (human) (UniProt P02786); experiment: FACS, supernatant on transfected 293 cells, 1 uM holo-Tf present
[6] = target: Full length cyno TfR on transfected 293 cells (cynomolgus monkey); experiment: as above

Measured: binding

B1: Mouse hybridoma clone 10D11 (antibody, V domains shown)
VH: QVQLQQSGPELVRPGVAVKISCKGSGYKFIDYGMHWVKQSHTKSLQWIGVISPYSGKTNYSQKFKGKATMTVDKSSSTAYMELARLTSEDSAIYYCARGLSGNFVMDFWGQGTSVTVSS
VL: DIVLTQSPASLAVSLGQRATISCRASESVDSYGPSFMHWYQQKPGQPPKLLIYRASNLESGIPARFSGSGSRTDFTLTINPVEADDVATYYCQHSNEDPPTFGGGTRLEIK
binds: all assays above

B2: Mouse hybridoma clone 7B10 (antibody, V domains shown)
VH: QVQLQQSGPELVRPGVSVKISCKGSGYTFTDYAMHWVKQSHAKSLEWIGGISTYFGRTNYNQKFKGRATMTVDKSSSTAYMELARLTSEDSALYYCARGLSGNYVMDYWGQGTSVTVSS
VL: DIVLTQSPASLAVSLGQRATISCRASESVDDYGNSFMHWYQQKPGQPPKLLIYRASNLESGIPARFSGSGSRTDFTLTINPVEADDVATYYCQQSNEAPPTFGGGTKLEIR
binds: all assays above

B3: Mouse hybridoma clone 7G7 (antibody, V domains shown)
VH: QVQLQQPGSELVRPGASVKLSCKASGYTFTSYWMHWVKQRHGQGLEWIGNIYPGSGSTKYDERFKSKGTLTVDTSSSTAYMHLSSLTSEDSAVYYCTRGGYDSRAWFAYWGQGTLVTVSA
VL: DIVLTQSPASLAVSLGQRATISCRARQSVSTSSYSFMHWYRQKAGQPPKLLIKYASIQESGVPARFSGSGSGTDFTLNILPVEEEDTATYYCQHTWEIPFTFGSGTKLEIK
binds: [2] | [4] | [6]

B4: Mouse hybridoma clone 4C2 (antibody, V domains shown)
VH: QVQLQQPGSELVRPGASVKLSCKASGYTFTSYWMHWVKQRHGQGLEWIGNIYPGSGSTKYDEKFKSKGTLTVDTSSSTAYMHLSSLTSEDSAVYYCTRGGYDSRAWFAHWGQGTLVTVSA
VL: DIVLTQSPASLAVSLGQRATISCRARQSVSTSSYSFMHWYQQKPGQPPKLLIKYASIQESGVPARFSGSGSGTDFTLNILPVEEEDTATYYCQHTWEIPFTFGSGTNLEIK
binds: [2] | [4] | [6]

B5: Mouse hybridoma clone 1B12 (antibody, V domains shown)
VH: EVKLVESGGGLVQPGGFLKLSCATSGFTFSDYYMYWVRQTPEKRLEWVASISNGGDNTYYPDTVKGRFTISRDNAKNTLYLQMSRLKSEDTAMYYCARQGALYDGYYRGAMDYWGQGTSVTVSS
VL: QIVLTQSPAIMSASLGGRVTMTCTTSSSVPSSYFHWYQQKPGSSPKLWIYSTSNLASGVPARFSGSGSGTSYSLTISSMEAEDAATYYCHQYHRSPFTFGSGTKLEIK
binds: [2] | [4] | [6]

B6: Mouse hybridoma clone 13D4 (antibody, V domains shown)
VH: QVQLQQSGAELMKPGASVKISCKAAGYTFSNYWIEWVKQRPGHGLEWIGEILPGSGSTKYNEKFKGKATFTADTSSNTAYMQLSSLTSEDSAVYYCARRGGYGYDGEFAYWGQGTLVTVSA
VL: DIQMTQTTSSLSASLGDRVTINCRAGQDITNYLNWFQQKPDGTVKLLIYYTSRLHSGVPSRFSGSGSGTDYSLTITNLEQEDIATYFCQQANTLPYTFGGGTKLEIK
binds: [2] | [4] | [6]

B7: Mouse hybridoma clone 16F6 (antibody, V domains shown)
VH: DVQLQESGPGLVKPSQSLSLTCTVTGNSITSEYAWNWIRQFPGNKLEWMGYISYSGTTSYNPSLKSRISITRDTSKNQLFLQLNSVTTEDTATYFCARYGYGNPATRYFDVWGAGTTVTVSS
VL: DVQITQSPSYLTASPGETITINCRASKSISKYLAWYQEKPGKTNKLLIYSGSTLQSGIPSRFSGSGSGTDFTLTISNLEPEDFAMYYCQQHNEYPWTFGGGTKLEIK
binds: [2] | [4] | [6]

B8: Mouse hybridoma clone 16G5 (antibody, V domains shown)
VH: QVQLQQPGAELVRPGAAVKLSCKASGYTFTSYWMHWVKQRPGQGLEWIGEINPTNGRTNYNENFKSKATLTVDKSSSTAYMQLSSLTSEDSAVYYCARGTRAYHFWGQGTSVTVSS
VL: DIQLTQTPASLSVSVGETVTITCRASENIYSNLAWYQQKQGKSPQLLVYAATDLADGVPSRFRGSGSGTQYSLKINSLQSEDFGSYYCQHFWGTPLTFGAGTKLELI
binds: [2] | [4] | [6]

B9: Mouse hybridoma clone 7A4 (antibody, V domains shown)
VH: QVQLQQSGPELVRPGVSVKISCKGSGYTFTDYAMHWVKQSHAKSLEWIGGISTYFGRTNYNQKFKGRATMTVDKSSSTAYMELARLTSEDSALYYCARGLSGNYVMDYWGQGTSVTVSS
VL: DIVLTQSPASLAVSLGQRATISCRASESVDDYGNSFMHWYQQKPGQPPKLLIYRASNLESGIPARFSGSGSRTDFTLTINPVEADDVATYYCQQSNEAPPTFGGGTKLEIR
binds: all assays above

B10: Mouse hybridoma clone 8A2 (antibody, V domains shown)
VH: QVQLQQSGPELVRPGVSVKISCKGSGYTFTDYGMHWVKQSHAKSLEWIGVISPYSGRTNYNQNFKGKATMTVDKSSSTAYLELARLTSEDSAIYYCARGLSGNYVVDYWGQGTSVTVSS
VL: DIVLTQSPASLAVSLGQRATISCRASESVDSYGNSFMHWYQQKPGQPPKLLIYRASNLESGIPARFSGSGSRTDFTLTINPVEADDVATYYCQQSNEGPPTFGGGTKLEIK
binds: [2] | [4] | [6]

B11: 7A4 HC/8A2 LC (antibody, V domains shown)
VH: QVQLQQSGPELVRPGVSVKISCKGSGYTFTDYAMHWVKQSHAKSLEWIGGISTYFGRTNYNQKFKGRATMTVDKSSSTAYMELARLTSEDSALYYCARGLSGNYVMDYWGQGTSVTVSS
VL: DIVLTQSPASLAVSLGQRATISCRASESVDSYGNSFMHWYQQKPGQPPKLLIYRASNLESGIPARFSGSGSRTDFTLTINPVEADDVATYYCQQSNEGPPTFGGGTKLEIK
binds: [2]

B12: Mouse hybridoma clone 15D2 (antibody, V domains shown)
VH: QVQLQQSGPELVRPGVSVKISCKGSGYTVTDYAMHWVKQSHAKSLEWIGVISFYSGKTNYNQKFMGKATMTVDKSSSTAYMELARLTSEDSAIYYCARGLSGNYVMDYWGQGTSVTVSS
VL: DIVLTQSPASLAVSLGQRATISCRASESVDSYGNSFMHWYQQKPGQPPKLLIYRASNLESGIPARFSGSGSRTDFTLTINPVEADDVATYYCQQSNEGPPTFGGGTKLEIK
binds: [2] | [4] | [6]
